Experimental data: patent US20120100173A1
No constants are given. Whether binding was seen depends on the method and setting. Some entries that bind do so weakly or less than the wild type.

Sequences of proteins named here, by UniProt entry; tags and fusion partners are left off. Residues count along the entry.
UniProt P17879, residues 2-642: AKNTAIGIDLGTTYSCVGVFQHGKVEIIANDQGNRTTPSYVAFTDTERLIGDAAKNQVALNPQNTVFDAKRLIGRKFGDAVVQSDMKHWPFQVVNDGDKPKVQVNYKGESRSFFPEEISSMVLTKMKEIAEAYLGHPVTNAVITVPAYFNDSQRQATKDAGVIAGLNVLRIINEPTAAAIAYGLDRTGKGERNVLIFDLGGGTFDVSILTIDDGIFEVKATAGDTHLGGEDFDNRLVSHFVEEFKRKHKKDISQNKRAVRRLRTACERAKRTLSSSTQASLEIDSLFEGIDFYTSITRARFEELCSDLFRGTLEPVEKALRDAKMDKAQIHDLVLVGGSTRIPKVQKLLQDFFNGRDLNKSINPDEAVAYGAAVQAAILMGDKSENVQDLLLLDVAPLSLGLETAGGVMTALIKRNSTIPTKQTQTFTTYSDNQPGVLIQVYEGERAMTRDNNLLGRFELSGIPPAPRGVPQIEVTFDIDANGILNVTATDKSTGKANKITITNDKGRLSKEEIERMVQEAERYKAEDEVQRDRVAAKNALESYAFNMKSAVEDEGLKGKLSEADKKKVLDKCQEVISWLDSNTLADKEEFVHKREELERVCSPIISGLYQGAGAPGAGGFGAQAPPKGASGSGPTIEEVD

Molecular target: HSP70 (mouse, endogenous, from organ tissue of tumor bearing mice or Meth A fibrosarcoma) (mouse) (UniProt P17879)
Assay: glutaraldehyde cross-linking of the HOP TPR1 eluate, SDS-PAGE gel shift and Western blot; same cross-linked band, direct partner not resolved

- binding: binds
B1: HIP (mouse, endogenous) (protein, UniProt Q99L47 1-371, looked up)
chain: MDPRKVSELRAFVKMCRQDPSVLHTEEMRFLREWVESMGGKVPPATHKAKSEENTKEEKRDKTTEENIKTEELSSEESDLEIDNEGVIEPDTDAPQEMGDENAEITEEMMDEANEKKGAAIEALNDGELQKAIDLFTDAIKLNPRLAILYAKRASVFVKLQKPNAAIRDCDRAIEINPDSAQPYKWRGKAHRLLGHWEEAAHDLALACKLDYDEDASAMLREVQPRAQKIAEHRRKYERKREEREIKERIERVKKAREEHERAQREEEARRQSGSQYGSFPGGFPGGMPGNFPGGMPGMGGAMPGMAGMAGMPGLNEILSDPEVLAAMQDPEVMVAFQDVAQNPSNMSKYQSNPKVMNLISKLSAKFGGQS
